In PMC10318467:
Results are given in words; binding and its absence hold for the method and conditions named. Binding seen in cells or lysates may run through a third protein. Binding calls can cover weak binding; strength is not graded here. Tags and fused reporters may be left off the sequences shown. Values belong to the binder of their own block, whether it stands above or below them.

Biological target: Haus6 with an N-terminal HRV3C-cleavable ZZ-tag (X. laevis)
Test: co-purification (IgG Sepharose by ZZ-Haus6), Western blot; subunits co-expressed in Sf9; complex held by ZZ-Haus6 on IgG Sepharose, eluted by HRV3C, then Superose 6 or Ni2+ agarose; Strep-tagged Haus3 and Haus8 found by α-Strep blot

binding: binds
B1: Strep-GFP-tagged Haus8 (subunit of full-length augmin and of T-II) (protein, UniProt Q0IHJ3 1-367)
chain: MSEAGVAPIEDGSQNSSGGSSGDAALKKSKGGAKVVKSRYMQIGRSKVSKNSLANTTVCSGGKVPERGSGGTPTRRSLAPHKAKITAAVPLPALDGSIFTKEDLQSTLLDGHRIARPDLDLSVINDRTLQKITPRPVVTSEQKKPKRDTTPVNLVPEDMVEMIESQTLLLTYLTIKMQKNLFRLEEKAERNLLLVNDQKDQLQETIHMMKRDLTLLQREERLRDLIEKQDEVLTPVVTSKDPFKDNYTTFATALDSTRHQLAIKNIHITGNRHRYLEELQKHLAITKSLLEEIMPSHASENAESFDTIKDLENIVLKTDEELARSFRQILDLSFKVNKEISLQSQKAVEETCESALVRQWYFDGSLP

binding: binds
B2: Strep-GFP-tagged Haus3 (protein, UniProt Q6DCY9 1-597)
chain: MSGGDRFVQTLQKLNYPKGAQLDGEDFDWLFEAVDLKPFLDWFCSAASEQNVVPDEKLQAFNTLKESGKPVLDEKALDEVLKTFSISKVPAIEEVAIEKLEEEVKALQKQKNLHIRRRNKLQMVESGNRQMCLKSKDKEEETGRAFQEVLHLLRVTNKKLNHELQSIVNGVQTLMSFFSTPETACELSSQPIFLSQLLLDKYLSLEEQSTAALTSFTKEHFFEGMSKFVEGSDENFQLVQLNVNSFGEDGTTEDKCKEMMRLQLAYICAKHKLIQMKAKSASLKVGLQWAENNASVVQDKASQKEENLKVRITSLKNETLQIENHTNSISNEKLPGLVRDNAQLLNMPIVKGDYDLQMAHQTSCSSRQDLVCDHLMKQKASFELLQLGYELELRKHRDVYRELGSIVQELKESGDKLEERLTMLSDVNLLSASKPRSNIDSKDLTSHRLYQLLDGDNTQKLFRTYDGLESVAQKLSQDIASMRDQLEVSEQEHSLLLSKLDSHLKELRDFMYPEGNTLMLTTPELSGEFHQLGSQLEKLNHITVEILGDLQLKRKMLESNKLQQIEKQLYVYFFQNEEQLKSIVGKLEAQTGGGSSA
